Consider 18 molecules from the supplement of paper PMC10727501.

Some of the results follow. Repeats in this data set agree poorly, so a single value says little.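 Free-swimming zebrafish larvae were assessed for O-bend response probability to dark flashes (naive: first five; training: remaining flashes across four 60-flash blocks; test: later 60-flash block) and for OMR turning toward alternating leftward/rightward LED motion. Six treated larvae were compared against sixty 0.1% DMSO controls; hits required |SSMD|≥2.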

Common to all, as to details: 10 µM; pre-incubation: 30-90 min
For test [1], the system named is Danio rerio larvae (5 dpf, TLF). Kind of test: OMR-Perf (SSMD vs DMSO vehicle); higher = higher than vehicle (e.g. higher dark-flash O-bend response probability, or better optomotor performance).
The test system is the same in test [2]. Kind of test: Prob-Test (SSMD vs DMSO vehicle); higher = higher than vehicle (e.g. higher dark-flash O-bend response probability, or better optomotor performance).
The test system is the same in test [3]. Kind of test: Prob-Naive (SSMD vs DMSO vehicle); higher = higher than vehicle (e.g. higher dark-flash O-bend response probability, or better optomotor performance).
The test system is the same in test [4]. Kind of test: Prob-Train (SSMD vs DMSO vehicle); higher = higher than vehicle (e.g. higher dark-flash O-bend response probability, or better optomotor performance).

In turn, `COC[C@H](NC(=O)c1cnc(C)s1)C(=O)N[C@@H](COC)C(=O)N[C@@H](Cc1ccccc1)C(=O)C1(C)CO1` (some centres not stated) [Oprozomib (ONX 0912)] had an OMR-Perf in test [1] of -0.0535. This molecule also had a Prob-Test in test [2] of -0.534. Also, the Prob-Naive in test [3] is -0.117. This molecule also showed a Prob-Train in test [4] of -0.185.

Consider `Cc1onc(-c2ccccc2)c1-c1ccc(S(N)(=O)=O)cc1` [Valdecoxib], for which the OMR-Perf in test [1] is -0.332. Besides, the Prob-Test in test [2] is -0.267. In test [3], this molecule had a Prob-Naive of 0.131. Moreover, the Prob-Train in test [4] was -0.138.

Consider `COC(=O)C1=CO[C@@H](O[C@@H]2O[C@H](CO)[C@@H](O)[C@@H](O)[C@H]2O)[C@H]2C(CO)=CC[C@H]12` [Geniposide], for which the OMR-Perf in test [1] came to 0.04. In test [2], this molecule returned a Prob-Test of 0.497. In test [3], the Prob-Naive was determined as 0.208. Besides, the Prob-Train in test [4] stood at 0.154.

In test [1], `CC(=O)O[C@H]1C[C@@H]2CC[C@@H]3[C@@H](CC[C@]4(C)[C@H](OC(C)=O)[C@@H]([N+]5(C)CCCCC5)C[C@@H]34)[C@@]2(C)C[C@@H]1N1CCCCC1.[Br-]` [Vecuronium Bromide] yielded an OMR-Perf of -0.166. The molecule further gave a Prob-Test in test [2] of 0.072. Further, the Prob-Naive in test [3] was -0.12. Besides, the Prob-Train in test [4] is -0.122.

Molecule `NC(=O)c1ccc(I)c([N+](=O)[O-])c1` [Iniparib (BSI-201)] yielded an OMR-Perf in test [1] of -0.538. Moreover, the Prob-Test in test [2] was -0.576. This molecule displayed a Prob-Naive in test [3] of -0.133. The same molecule came in with a Prob-Train in test [4] of -0.372.

In the case of `CC(C)Cc1ccc(C(C)C(=O)O)cc1` (configuration not stated) [Ibuprofen], in test [1], the OMR-Perf was -0.725. In test [2], this molecule registered a Prob-Test of -0.944. This molecule yielded a Prob-Naive in test [3] of -0.484. The Prob-Train in test [4] is -1.74.

`CCC(=O)O[C@@H](OP(=O)(CCCCc1ccccc1)CC(=O)N1C[C@H](C2CCCCC2)C[C@H]1C(=O)[O-])C(C)C.[Na+]` (some centres not stated) [Fosinopril sodium (Monopril)]: the OMR-Perf in test [1] is -0.283. Further, the Prob-Test in test [2] is 0.32. The Prob-Naive in test [3] is -0.142. The molecule also showed a Prob-Train in test [4] of 0.2.

As for `Cc1c(O)c(=O)ccn1C` [Deferiprone], in test [1], the OMR-Perf was determined as 0.297. This molecule showed a Prob-Test in test [2] of -0.103. This molecule also registered a Prob-Naive in test [3] of 0.153. The Prob-Train in test [4] was 0.114.

In test [1], `COc1cc([C@H]2c3cc4c(cc3[C@@H](O[C@@H]3O[C@@H]5CO[C@@H](c6cccs6)O[C@H]5[C@H](O)[C@H]3O)[C@H]3COC(=O)[C@H]23)OCO4)cc(OC)c1O` [Teniposide] came in with an OMR-Perf of -0.256. In addition, in test [2], the Prob-Test was -0.693. This molecule also returned a Prob-Naive in test [3] of -0.138. The Prob-Train in test [4] was -0.26.

Molecule `CN1C[C@@H]2C[C@H]1CN2c1cc2c(cc1F)c(=O)c(C(=O)O)cn2C1CC1.CS(=O)(=O)O` [Danofloxacin Mesylate] had an OMR-Perf in test [1] of 0.0582. Besides, in test [2], the Prob-Test was -0.142. Besides, in test [3], the Prob-Naive is -0.243. The molecule further had a Prob-Train in test [4] of 0.501.

In test [1], `O=C([O-])c1cc(=O)c2c(OCC(O)COc3cccc4oc(C(=O)[O-])cc(=O)c34)cccc2o1.[Na+].[Na+]` [Disodium Cromoglycate] came in with an OMR-Perf of 0.0682. The molecule also displayed a Prob-Test in test [2] of 0.0663. In test [3], this molecule gave a Prob-Naive of 0.421. The same molecule returned a Prob-Train in test [4] of 0.663.

In test [1], `OCC(O)CN1CCN(c2ccccc2)CC1` (configuration not stated) [Dropropizine] registered an OMR-Perf of -0.493. In addition, in test [2], the Prob-Test was -0.217. Further, the Prob-Naive in test [3] turned out to be 0.355. This molecule also showed a Prob-Train in test [4] of -0.0282.

Consider `Cc1cccc(Nc2cc(Cl)nc(SCC(=O)O)n2)c1C`, for which, in test [1], the OMR-Perf came to 0.26. Also, the Prob-Test in test [2] worked out at 0.0161. The same molecule returned a Prob-Naive in test [3] of 0.0696. The Prob-Train in test [4] came out at 0.00616.

`CCOc1nc2cccc(C(=O)O)c2n1Cc1ccc(-c2ccccc2-c2nc(=O)o[nH]2)cc1` [Azilsartan] registered an OMR-Perf in test [1] of -0.395. The Prob-Test in test [2] was -0.138. In test [3], the Prob-Naive was -0.319. In test [4], this molecule registered a Prob-Train of -0.384.

Take `O=C(N/N=C/c1ccc([N+](=O)[O-])o1)c1ccc(O)cc1` [Nifuroxazide]: the OMR-Perf in test [1] turned out to be 0.411. For the same molecule, in test [2], the Prob-Test was 0.092. Besides, the Prob-Naive in test [3] worked out at 0.263. For the same molecule, in test [4], the Prob-Train came to 0.241.

Turning to `CN1CCC(=C2c3ccccc3CCc3sccc32)CC1.O=C(O)CC(O)C(=O)O` [Pizotifen Malate], the OMR-Perf in test [1] was -0.746. This molecule had a Prob-Test in test [2] of -0.94. Moreover, the Prob-Naive in test [3] is -0.605. The molecule further displayed a Prob-Train in test [4] of -1.53.

In test [1], `CCCCNc1ncc(-c2ccc(CN3CCOCC3)cn2)c(N[C@H]2CC[C@H](O)CC2)n1` displayed an OMR-Perf of -0.769. Also, the Prob-Test in test [2] is -0.208. The molecule further gave a Prob-Naive in test [3] of 0.227. In addition, the Prob-Train in test [4] was -0.577.

For the molecule `O=C(C1CCCCC1)N1CC(=O)N2CCc3ccccc3C2C1` (configuration not stated) [Praziquantel], in test [1], the OMR-Perf was -0.214. Further, the Prob-Test in test [2] is 0.0356. The same molecule had a Prob-Naive in test [3] of 0.292. This molecule also displayed a Prob-Train in test [4] of 0.154.
